PubChem BioAssay AID1259254 – NCATS | 2017
Purpose: 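Genome-wide screen for genes that prevent DNA re-replication in cancer cells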 (primary screen). Cells: human HCT116 colorectal cancer cells. Knock-down reagent: single siRNA against human genes. Duration: 3 days. Detection: 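Imaged Hoechst DNA stain sorts each cell into a cycle phase by DNA amount; per plate, G2 fraction set to 0% for non-targeting and 100% for GMNN siRNA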. Scale: G2 robust z-score: higher = more G2 cells, more excess DNA replication. Active means: 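An siRNA counts as active if its G2 robust z-score lies at least 5 MADs above the screen median; here such calls match roughly 38% of GMNN control or more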.
The deposit covers about 59,000 reagents; this is an unselected part. Of all reagents, about 1,550 (2.6%) were called active. 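G2 share is only a proxy for re-replication; each gene was hit by three separate siRNAs, and active genes were retested.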 The numbers tell different reagents against one gene apart. Further read-outs or replicates are left out here. Not stated in the record: the amount of reagent.

| Target gene | reagent no. | G2 robust z-score | call |
| --- | --- | --- | --- |
| TRIP13 (GeneID 9319) | 1 | -0.21 | inactive |
| TRIP13 (GeneID 9319) | 2 | 0.696 | inactive |
| TRIP13 (GeneID 9319) | 3 | -0.451 | inactive |
| PRDX1 (GeneID 5052) | 1 | 0.56 | inactive |
| PRDX1 (GeneID 5052) | 2 | -0.954 | inactive |
| PRDX1 (GeneID 5052) | 3 | 0.0631 | inactive |
| DDX28 (GeneID 55794) | 1 | -0.797 | inactive |
| DDX28 (GeneID 55794) | 2 | -0.515 | inactive |
| DDX28 (GeneID 55794) | 3 | -0.417 | inactive |
| DHX40 (GeneID 79665) | 1 | 0.28 | inactive |
| DHX40 (GeneID 79665) | 2 | 0.431 | inactive |
| DHX40 (GeneID 79665) | 3 | -0.194 | inactive |
| FNDC1 (GeneID 84624) | 1 | 6.36 | active |
| FNDC1 (GeneID 84624) | 2 | -1.39 | inactive |
| FNDC1 (GeneID 84624) | 3 | -0.705 | inactive |

Continued, starting with the last 2 of the part before.
| Target gene | reagent no. | G2 robust z-score | call |
| --- | --- | --- | --- |
| FNDC1 (GeneID 84624) | 2 | -1.39 | inactive |
| FNDC1 (GeneID 84624) | 3 | -0.705 | inactive |
| IL11RA (GeneID 3590) | 1 | 1.76 | inactive |
| IL11RA (GeneID 3590) | 2 | 0.669 | inactive |
| IL11RA (GeneID 3590) | 3 | 0.312 | inactive |
| TRIB2 (GeneID 28951) | 1 | -0.294 | inactive |
| TRIB2 (GeneID 28951) | 2 | -0.781 | inactive |
| TRIB2 (GeneID 28951) | 3 | 2.43 | inactive |
| HMGA1 (GeneID 3159) | 1 | 1.47 | inactive |
| HMGA1 (GeneID 3159) | 2 | 2.39 | inactive |
| HMGA1 (GeneID 3159) | 3 | 1.02 | inactive |
| ADAMTS18 (GeneID 170692) | 1 | 0.0377 | inactive |
| ADAMTS18 (GeneID 170692) | 2 | -0.00278 | inactive |
| ADAMTS18 (GeneID 170692) | 3 | 0.17 | inactive |
| CSAG2 (GeneID 102723547) | 1 | 0.264 | inactive |
| CSAG2 (GeneID 102723547) | 2 | 0.00843 | inactive |
| CSAG2 (GeneID 102723547) | 3 | 4.08 | inactive |
